The results in this text go back to the supplement of paper PMC12889115.

This is one part of the list. These are raw signals, not scaled to a control.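 In the initial screen, polymyxin B was used at a concentration that permeabilizes Salmonella's outer membrane but not its inner membrane. Maximum growth was set by DMSO wells with or without polymyxin B. Since plates varied, data were ranked per plate, and compounds giving the lowest OD600 advanced as hits.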

In the assay the test system is Salmonella enterica serovar Typhimurium SL1344. Put plainly: bacterial growth OD600 after 18 h with compound and polymyxin B; higher = more bacterial growth (less inhibition). The conditions noted are these: 50 µM, Mueller-Hinton broth.

For `Cc1cc(C)n(-c2ccc(NC(=O)C3CCN(C(=O)c4ccoc4)CC3)cc2)n1`, the “bacterial growth OD600” value (polymyxin B 1 µg/mL) is 0.834.

Take `COc1ccccc1-n1cc(CNC(=O)CCC2(Cc3ccc(Cl)cc3)CCC(=O)N2)cn1` (stereo not given): the “bacterial growth OD600” value (polymyxin B 0.75 µg/mL) stood at 0.269.

Regarding `Cc1ccc(OCC2CCCN(C(=O)c3ccc(-n4cc(NC(=O)c5cccnc5)cn4)cc3)C2)cc1` (stereo not given), under “polymyxin B 0.75 µg/mL”, the “bacterial growth OD600” value came to 0.011. On to `COc1cccc(CN2CCCC(C(=O)c3ccc(SC)cc3)C2)c1OC` (stereo not given), for which the “bacterial growth OD600” value (polymyxin B 1 µg/mL) was 0.814.

For `Cc1cc(C)n(-c2cccc(C(=O)N3CCc4c(cnc(C)c4CNC(=O)c4ccsc4)C3)c2)n1`, the “bacterial growth OD600” value (polymyxin B 0.75 µg/mL) turned out to be 0.754. With `Cc1nonc1CC(=O)NC(C)c1cnn(-c2cccc3ccccc23)c1C` (stereo not given), the “bacterial growth OD600” value (polymyxin B 1 µg/mL) turned out to be 0.881.

For `Cc1ccc(CNCC2(O)CCCN(Cc3cccc(F)c3F)C2=O)cc1` (stereo not given), the “bacterial growth OD600” value (polymyxin B 1 µg/mL) is 0.899.

With `COCC(=O)N1CCC(Oc2ccc(C(=O)N(C)CCC3CCCCO3)cc2)CC1` (stereo not given), the “bacterial growth OD600” value (polymyxin B 1 µg/mL) was found to be 1.14. Turning to `O=C(NCc1scnc1-c1ccccc1)C1CCC(=O)N(C2CC2)C1` (stereo not given), the “bacterial growth OD600” value (polymyxin B 1 µg/mL) was found to be 0.969.

`CSCC(=O)N1CCC(CCC(=O)NCc2cccc(C(F)(F)F)c2)CC1`: under “polymyxin B 0.75 µg/mL”, the “bacterial growth OD600” value amounted to 0.792. With `Cc1cc(Cl)c2oc(C(=O)N3CCC(C(=O)N4CCCCC4)CC3)c(C)c2c1`, the “bacterial growth OD600” value (polymyxin B 1 µg/mL) came to 0.073. For `COCCn1c(-c2ccccn2)nc2cc(NC(C)=O)cc(C(=O)NC3CCCc4ccccc43)c21` (stereo not given), the “bacterial growth OD600” value (polymyxin B 0.75 µg/mL) is 0.758. As for `CCc1nccn1CCC(=O)N(C)CC1CCN(CCc2ccccc2F)CC1`, the “bacterial growth OD600” value (polymyxin B 1 µg/mL) came out at 1.02. Take `COCc1ccc(CN2CCCC(CCC(=O)NCc3ccc(OC)cc3OC)C2)o1` (stereo not given): the “bacterial growth OD600” value (polymyxin B 1 µg/mL) turned out to be 0.993. Still for that read-out and setting: in the case of `Cn1cc(CN2CCC(C(O)c3nccn3C)CC2)c(-c2cccc(Cl)c2)n1` (stereo not given) it was 0.746; in that of `CCOC(=O)C1(Cc2ccc(F)cc2)CCCN(C(=O)c2ccc(OC)c(OC)c2)C1` (stereo not given), 1.02. With `CC(C)c1csc(CNC2CCCN(c3ncccn3)C2)n1` (stereo not given), the “bacterial growth OD600” value (polymyxin B 1 µg/mL) stood at 1.09. `CCn1cc(C(=O)N2CCc3[nH]nc(-c4ccccc4F)c3C2)cn1`: the “bacterial growth OD600” value (polymyxin B 0.75 µg/mL) was determined as 0.854. Turning to `O=C(NCC1CCCN(C(=O)C2(c3ccccc3)CC2)C1)c1ccc(F)cc1` (stereo not given), the “bacterial growth OD600” value (polymyxin B 1 µg/mL) turned out to be 0.846.

Consider `Cc1nonc1C1CCCN1c1ccc(-c2nc(C3CC3)no2)cn1` (stereo not given), for which, where the note is “polymyxin B 1 µg/mL”, the “bacterial growth OD600” value came out at 0.008.

As to `COc1ccc(CN2CCC(n3nccc3NC(=O)Cc3ccccc3)CC2)cc1OC`, the “bacterial growth OD600” value (polymyxin B 0.75 µg/mL) turned out to be 0.816. In the case of `COc1ccc(CNC(=O)CCC2CCCN(Cc3cccc(C)n3)C2)c(OC)c1` (stereo not given), the “bacterial growth OD600” value (polymyxin B 0.75 µg/mL) is 0.884.

Consider `COc1cccc(NC(=O)CCC2CCN(Cc3nccs3)CC2)c1`, for which, under “polymyxin B 1 µg/mL”, the “bacterial growth OD600” value was found to be 0.823. Turning to `COc1cccc(-c2nn(-c3ccccc3)cc2CN2CCCC(CN3CCCC3=O)C2)c1` (stereo not given), the “bacterial growth OD600” value (polymyxin B 1 µg/mL) came to 0.88. As for `Cc1ncc2c(c1CNC(=O)Cc1ccsc1)CCN(C(=O)Cc1c(F)ccc(F)c1F)C2`, where the note is “polymyxin B 0.75 µg/mL”, the “bacterial growth OD600” value was 0.824. Regarding `CCn1cc(CN2CCCC(CNC(=O)C3(c4ccc(Cl)cc4)CC3)C2)cn1` (stereo not given), the “bacterial growth OD600” value (polymyxin B 1 µg/mL) was 0.903. `Cc1ncc(CN2CCC3(CCCN(Cc4ccc(C(C)C)cc4)C3=O)C2)cn1` (stereo not given): the “bacterial growth OD600” value (polymyxin B 1 µg/mL) was 0.846. Consider `CC(C)CC(=O)C(=O)N1CCC(N2CCC(C(=O)NCC3CCCO3)CC2)CC1` (stereo not given), for which, where the note is “polymyxin B 1 µg/mL”, the “bacterial growth OD600” value came out at 1.04. Take `CCN(CC)CCN(CC)C(=O)Cn1nnnc1CN(C)C(C)C`: for the setting “polymyxin B 0.75 µg/mL”, the “bacterial growth OD600” value was 0.827. Take `Cc1ccccc1CN1C[C@@H]2C[C@@H](c3cnn(C)c3C)N3CCC[C@@]23C1=O`: the “bacterial growth OD600” value (polymyxin B 0.75 µg/mL) was 0.789.
